This test deals with rat collagen-I (rat) (UniProt P02454+P02466). Briefly: ELISA; 96-well plate coated with rat collagen-I, PEDF incubated, bound PEDF detected with an anti-PEDF antibody. For orientation: ELISA stands for enzyme-linked immunosorbent assay.

Amino acid sequences for entries named in this document (tags omitted). A change or cut given only in a name is not applied to a line headed by its entry.
UniProt P02454: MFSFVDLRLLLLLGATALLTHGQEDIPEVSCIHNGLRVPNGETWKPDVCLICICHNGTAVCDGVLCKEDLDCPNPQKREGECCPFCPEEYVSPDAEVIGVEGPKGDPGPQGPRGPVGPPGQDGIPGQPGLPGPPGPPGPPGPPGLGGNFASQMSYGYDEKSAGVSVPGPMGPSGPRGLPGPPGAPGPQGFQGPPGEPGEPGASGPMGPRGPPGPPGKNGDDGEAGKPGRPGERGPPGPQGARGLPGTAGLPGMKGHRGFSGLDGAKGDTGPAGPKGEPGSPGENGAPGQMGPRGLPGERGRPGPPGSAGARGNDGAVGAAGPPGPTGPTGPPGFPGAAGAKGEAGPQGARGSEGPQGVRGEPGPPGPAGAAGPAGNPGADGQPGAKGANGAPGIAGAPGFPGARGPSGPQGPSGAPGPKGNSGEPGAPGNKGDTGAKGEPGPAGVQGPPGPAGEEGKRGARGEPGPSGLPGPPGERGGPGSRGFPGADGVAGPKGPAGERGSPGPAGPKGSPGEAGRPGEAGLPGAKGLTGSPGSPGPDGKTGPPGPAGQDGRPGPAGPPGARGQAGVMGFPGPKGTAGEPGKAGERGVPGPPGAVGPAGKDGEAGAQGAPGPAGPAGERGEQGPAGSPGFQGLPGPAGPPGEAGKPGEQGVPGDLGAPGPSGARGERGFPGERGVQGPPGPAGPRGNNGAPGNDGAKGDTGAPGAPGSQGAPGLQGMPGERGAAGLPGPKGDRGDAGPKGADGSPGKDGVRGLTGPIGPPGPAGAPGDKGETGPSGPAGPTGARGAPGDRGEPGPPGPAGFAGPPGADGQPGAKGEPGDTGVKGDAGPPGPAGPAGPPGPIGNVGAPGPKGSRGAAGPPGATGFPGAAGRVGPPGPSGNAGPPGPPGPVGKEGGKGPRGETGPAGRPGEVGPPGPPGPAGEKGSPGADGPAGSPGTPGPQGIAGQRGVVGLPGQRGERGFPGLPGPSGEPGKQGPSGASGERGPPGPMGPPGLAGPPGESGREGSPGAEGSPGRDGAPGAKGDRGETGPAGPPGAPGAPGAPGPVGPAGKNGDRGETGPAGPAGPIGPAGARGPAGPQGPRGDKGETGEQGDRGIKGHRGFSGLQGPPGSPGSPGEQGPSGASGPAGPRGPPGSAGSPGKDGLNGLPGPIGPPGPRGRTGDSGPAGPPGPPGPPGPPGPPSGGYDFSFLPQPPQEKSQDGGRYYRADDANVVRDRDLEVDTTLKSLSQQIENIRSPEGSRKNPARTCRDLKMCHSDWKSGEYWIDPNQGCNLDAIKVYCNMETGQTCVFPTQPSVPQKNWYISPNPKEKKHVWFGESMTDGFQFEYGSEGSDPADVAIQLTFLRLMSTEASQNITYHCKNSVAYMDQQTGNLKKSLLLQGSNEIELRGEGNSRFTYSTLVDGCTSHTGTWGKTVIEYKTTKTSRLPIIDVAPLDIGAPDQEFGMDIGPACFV
UniProt P02466: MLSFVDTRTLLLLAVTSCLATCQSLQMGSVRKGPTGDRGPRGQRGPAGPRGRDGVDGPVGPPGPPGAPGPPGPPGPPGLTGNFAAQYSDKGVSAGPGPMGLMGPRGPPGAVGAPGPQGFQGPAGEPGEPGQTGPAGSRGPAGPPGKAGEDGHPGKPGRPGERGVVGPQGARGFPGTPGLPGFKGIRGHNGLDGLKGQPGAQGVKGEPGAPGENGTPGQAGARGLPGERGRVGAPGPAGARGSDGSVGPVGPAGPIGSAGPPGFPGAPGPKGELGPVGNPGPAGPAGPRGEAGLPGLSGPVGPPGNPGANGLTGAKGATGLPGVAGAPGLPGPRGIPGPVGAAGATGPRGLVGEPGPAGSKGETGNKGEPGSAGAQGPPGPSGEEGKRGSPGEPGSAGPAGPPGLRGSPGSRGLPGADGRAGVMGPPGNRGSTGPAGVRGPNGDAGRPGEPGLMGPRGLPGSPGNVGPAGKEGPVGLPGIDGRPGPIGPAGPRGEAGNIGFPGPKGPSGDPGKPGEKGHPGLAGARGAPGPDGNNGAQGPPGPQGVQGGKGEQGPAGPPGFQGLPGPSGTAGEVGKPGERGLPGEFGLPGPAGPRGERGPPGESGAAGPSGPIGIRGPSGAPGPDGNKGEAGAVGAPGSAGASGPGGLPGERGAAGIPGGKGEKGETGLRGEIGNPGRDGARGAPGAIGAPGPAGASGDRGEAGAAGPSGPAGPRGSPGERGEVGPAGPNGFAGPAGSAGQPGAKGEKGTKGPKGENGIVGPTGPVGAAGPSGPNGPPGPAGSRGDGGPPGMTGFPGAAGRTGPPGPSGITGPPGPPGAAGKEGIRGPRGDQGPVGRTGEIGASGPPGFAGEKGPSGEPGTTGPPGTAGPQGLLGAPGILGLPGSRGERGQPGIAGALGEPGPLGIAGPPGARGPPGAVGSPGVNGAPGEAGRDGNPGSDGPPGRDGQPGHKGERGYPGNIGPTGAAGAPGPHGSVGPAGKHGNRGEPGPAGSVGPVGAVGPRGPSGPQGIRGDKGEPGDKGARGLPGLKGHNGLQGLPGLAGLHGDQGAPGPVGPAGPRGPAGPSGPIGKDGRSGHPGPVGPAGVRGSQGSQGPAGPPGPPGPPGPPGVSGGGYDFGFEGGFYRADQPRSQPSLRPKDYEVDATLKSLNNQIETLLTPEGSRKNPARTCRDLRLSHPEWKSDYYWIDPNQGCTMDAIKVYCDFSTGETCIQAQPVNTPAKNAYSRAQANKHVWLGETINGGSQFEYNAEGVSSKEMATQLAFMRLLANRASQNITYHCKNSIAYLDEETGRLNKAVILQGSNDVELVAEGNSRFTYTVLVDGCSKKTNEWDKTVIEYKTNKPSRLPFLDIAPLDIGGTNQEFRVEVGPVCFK

Results are given in words; binding and its absence hold for the method and conditions named. Some binding calls cover weakened binding; strength is not graded here.

B1: wild type human pigment epithelium-derived factor (PEDF) (protein)
chain: QNPASPPEEGSPDPDSTGALVEEEDPFFKVPVNKLAAAVSNFGYDLYRVRSSTSPTTNVLLSPLSVATALSALSLGAEQRTESIIHRALYYDLISSPDIHGTYKELLDTVTAPQKNLKSASRIVFEKKLRIKSSFVAPLEKSYGTRPRVLTGNPRLDLQEINNWVQAQMKGKLARSTKEIPDEISILLLGVAHFKGQWVTKFDSRKTSLEDFYLDEERTVRVPMMSDPKAVLRYGLDSDLSCKIAQLPLTGSMSIIFFLPLKVTQNLTLIEESLTSEFIHDIDRELKTVQAVLTVPKLKLSYEGEVTKSLQEMKLQSLFDSPDFSKITGKPIKLTQVEHRAGFEWNEDGAGTTPSPGLQPAHLTFPLDYHLNQPFIFVLRDTDTGALLFIGKILDPRGP
Take B1: the binding entry is on record as “binds”.

B2: engineered PEDF (6) (protein)
chain: QNPASPPEEGSPDPDSTGALVEEEDPFFKVPVNKLAAAVSNFGYDLYRVRSSTSPTTNVLLSPLSVATALSALSLGAEQRTESIIHRALYYDLISSPDIHGTYKELLDTVTAPQKNLKSASRIVFEKKLRIKSSFVAPLEKSYGTRPRVLTKNPRLDLQEINNWVQKQMKGKLKRSTKKIPKKISILLLGVAHFKGQWVTKFDSRKTSLEDFYLDEERTVRVPMMSDPKAVLRYGLDSDLSCKIAQLPLTGSMSIIFFLPLKVTQNLTLIEESLTSEFIHDIDRELKTVQAVLTVPKLKLSYEGEVTKSLQEMKLQSLFDSPDFSKITGKPIKLTQVEHRAGFEWNEDGAGTTPSPGLQPAHLTFPLDYHLNQPFIFVLRDTDTGALLFIGKILDPRGP
B2: the binding result is “binds”.

The values are drawn from patent publication US20210332107A1.
